Measurements reported in the supplement of paper PMC11006884.
This list holds what a sample rich in targets with a hit left over. The data scatter; read single values as rough. This is a selection; strong and weak results do not stand in their true shares.

Sequences of proteins named here, by UniProt entry; tags and fusion partners are left off. A change or cut given only in a name is not applied to a line headed by its entry.
UniProt P48163: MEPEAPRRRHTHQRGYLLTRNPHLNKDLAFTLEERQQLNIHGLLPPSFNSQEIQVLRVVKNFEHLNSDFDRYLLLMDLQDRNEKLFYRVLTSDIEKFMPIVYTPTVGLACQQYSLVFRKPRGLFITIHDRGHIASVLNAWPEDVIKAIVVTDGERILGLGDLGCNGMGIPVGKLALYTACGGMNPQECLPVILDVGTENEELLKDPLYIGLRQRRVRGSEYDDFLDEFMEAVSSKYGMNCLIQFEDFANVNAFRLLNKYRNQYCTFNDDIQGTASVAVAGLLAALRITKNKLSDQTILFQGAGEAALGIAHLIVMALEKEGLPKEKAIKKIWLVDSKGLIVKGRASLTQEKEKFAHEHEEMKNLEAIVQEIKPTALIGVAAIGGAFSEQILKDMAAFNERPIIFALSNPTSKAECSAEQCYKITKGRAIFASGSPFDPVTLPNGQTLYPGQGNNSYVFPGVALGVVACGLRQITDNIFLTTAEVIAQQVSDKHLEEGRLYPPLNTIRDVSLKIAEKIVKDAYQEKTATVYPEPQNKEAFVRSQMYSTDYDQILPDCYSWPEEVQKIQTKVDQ
UniProt P45880: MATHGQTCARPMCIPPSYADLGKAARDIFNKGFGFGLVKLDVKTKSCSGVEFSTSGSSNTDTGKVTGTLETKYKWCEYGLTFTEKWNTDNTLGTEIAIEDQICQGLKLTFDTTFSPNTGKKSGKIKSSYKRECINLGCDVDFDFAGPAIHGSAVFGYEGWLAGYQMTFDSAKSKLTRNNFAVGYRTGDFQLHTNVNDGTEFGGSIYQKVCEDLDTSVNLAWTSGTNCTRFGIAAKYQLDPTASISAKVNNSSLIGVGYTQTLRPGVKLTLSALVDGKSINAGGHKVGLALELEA
UniProt P49792, whole entry, looked up: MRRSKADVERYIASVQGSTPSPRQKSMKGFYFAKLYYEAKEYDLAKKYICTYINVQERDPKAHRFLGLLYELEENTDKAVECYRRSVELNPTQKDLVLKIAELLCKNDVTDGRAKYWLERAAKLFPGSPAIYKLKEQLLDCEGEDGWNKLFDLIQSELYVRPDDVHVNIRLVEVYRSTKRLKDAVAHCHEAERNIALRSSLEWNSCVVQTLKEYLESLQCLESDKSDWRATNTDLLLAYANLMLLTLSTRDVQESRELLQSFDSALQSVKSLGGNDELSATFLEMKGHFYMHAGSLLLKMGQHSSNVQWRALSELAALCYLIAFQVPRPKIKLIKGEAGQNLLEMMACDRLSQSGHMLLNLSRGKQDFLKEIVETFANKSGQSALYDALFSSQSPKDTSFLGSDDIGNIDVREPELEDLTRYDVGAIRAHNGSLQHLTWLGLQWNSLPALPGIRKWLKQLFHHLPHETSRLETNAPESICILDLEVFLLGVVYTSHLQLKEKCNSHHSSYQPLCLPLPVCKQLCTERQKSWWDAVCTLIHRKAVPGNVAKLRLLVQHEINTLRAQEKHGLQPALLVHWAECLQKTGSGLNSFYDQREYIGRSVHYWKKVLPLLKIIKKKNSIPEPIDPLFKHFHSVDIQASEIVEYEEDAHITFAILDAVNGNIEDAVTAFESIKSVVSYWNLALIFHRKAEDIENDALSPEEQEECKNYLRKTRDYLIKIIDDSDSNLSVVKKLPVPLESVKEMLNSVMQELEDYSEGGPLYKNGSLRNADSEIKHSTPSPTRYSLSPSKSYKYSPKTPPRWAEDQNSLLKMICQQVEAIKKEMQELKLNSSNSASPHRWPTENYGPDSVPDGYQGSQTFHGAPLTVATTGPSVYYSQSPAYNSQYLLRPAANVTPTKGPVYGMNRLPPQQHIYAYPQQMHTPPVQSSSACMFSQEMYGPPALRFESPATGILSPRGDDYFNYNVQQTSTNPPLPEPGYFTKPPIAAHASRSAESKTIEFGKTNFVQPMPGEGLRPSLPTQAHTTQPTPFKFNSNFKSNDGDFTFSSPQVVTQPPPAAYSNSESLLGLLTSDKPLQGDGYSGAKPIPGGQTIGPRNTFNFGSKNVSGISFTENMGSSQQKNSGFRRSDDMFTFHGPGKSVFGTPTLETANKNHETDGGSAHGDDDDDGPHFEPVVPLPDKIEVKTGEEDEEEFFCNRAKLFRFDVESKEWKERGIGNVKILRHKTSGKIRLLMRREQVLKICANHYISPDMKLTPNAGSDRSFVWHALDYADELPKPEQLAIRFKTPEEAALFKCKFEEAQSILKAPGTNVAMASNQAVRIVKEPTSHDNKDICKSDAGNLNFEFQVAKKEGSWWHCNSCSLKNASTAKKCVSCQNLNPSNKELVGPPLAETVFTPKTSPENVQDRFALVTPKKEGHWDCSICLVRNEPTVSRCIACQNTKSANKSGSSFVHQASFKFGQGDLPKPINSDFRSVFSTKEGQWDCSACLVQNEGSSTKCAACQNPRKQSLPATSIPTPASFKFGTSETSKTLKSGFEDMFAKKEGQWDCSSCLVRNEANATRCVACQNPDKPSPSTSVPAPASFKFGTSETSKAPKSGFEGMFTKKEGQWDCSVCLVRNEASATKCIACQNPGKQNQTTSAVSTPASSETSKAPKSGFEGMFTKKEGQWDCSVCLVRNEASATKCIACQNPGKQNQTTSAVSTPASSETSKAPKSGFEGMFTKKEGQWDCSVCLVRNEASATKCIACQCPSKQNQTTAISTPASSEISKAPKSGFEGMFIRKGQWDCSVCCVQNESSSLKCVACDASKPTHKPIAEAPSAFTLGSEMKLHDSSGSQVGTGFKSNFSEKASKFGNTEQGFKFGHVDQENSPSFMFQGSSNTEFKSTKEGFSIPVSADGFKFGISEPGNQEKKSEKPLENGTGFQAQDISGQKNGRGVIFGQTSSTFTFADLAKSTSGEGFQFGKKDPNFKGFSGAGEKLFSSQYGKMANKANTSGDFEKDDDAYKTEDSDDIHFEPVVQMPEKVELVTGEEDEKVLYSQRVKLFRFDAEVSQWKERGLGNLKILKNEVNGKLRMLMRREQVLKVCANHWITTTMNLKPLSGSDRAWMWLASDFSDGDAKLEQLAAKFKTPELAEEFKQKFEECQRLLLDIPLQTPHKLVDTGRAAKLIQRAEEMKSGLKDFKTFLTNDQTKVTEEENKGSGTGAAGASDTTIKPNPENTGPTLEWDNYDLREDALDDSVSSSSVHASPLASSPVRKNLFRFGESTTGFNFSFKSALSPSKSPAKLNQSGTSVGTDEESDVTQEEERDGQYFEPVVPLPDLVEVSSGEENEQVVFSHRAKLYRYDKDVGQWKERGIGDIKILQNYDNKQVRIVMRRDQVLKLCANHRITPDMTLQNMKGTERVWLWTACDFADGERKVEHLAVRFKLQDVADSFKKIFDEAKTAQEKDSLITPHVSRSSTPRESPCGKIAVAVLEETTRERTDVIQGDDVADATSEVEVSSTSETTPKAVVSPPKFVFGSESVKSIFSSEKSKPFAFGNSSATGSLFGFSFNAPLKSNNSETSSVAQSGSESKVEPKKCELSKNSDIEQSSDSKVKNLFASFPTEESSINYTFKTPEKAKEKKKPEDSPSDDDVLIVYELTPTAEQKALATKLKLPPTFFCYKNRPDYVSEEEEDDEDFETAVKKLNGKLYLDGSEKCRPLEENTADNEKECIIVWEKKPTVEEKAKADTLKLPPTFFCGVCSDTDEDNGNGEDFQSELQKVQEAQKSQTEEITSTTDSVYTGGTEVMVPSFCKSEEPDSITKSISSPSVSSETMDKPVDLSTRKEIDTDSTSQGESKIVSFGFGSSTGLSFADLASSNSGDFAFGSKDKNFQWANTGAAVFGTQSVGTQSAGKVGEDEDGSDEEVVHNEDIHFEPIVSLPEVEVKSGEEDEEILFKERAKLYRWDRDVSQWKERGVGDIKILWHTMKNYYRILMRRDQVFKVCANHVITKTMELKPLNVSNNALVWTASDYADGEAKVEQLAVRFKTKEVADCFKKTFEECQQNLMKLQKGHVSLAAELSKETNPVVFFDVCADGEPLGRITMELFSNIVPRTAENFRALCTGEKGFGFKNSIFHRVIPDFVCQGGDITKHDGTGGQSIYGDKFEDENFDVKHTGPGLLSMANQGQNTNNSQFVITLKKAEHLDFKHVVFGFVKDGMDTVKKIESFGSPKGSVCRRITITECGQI
UniProt P49821, whole entry, looked up: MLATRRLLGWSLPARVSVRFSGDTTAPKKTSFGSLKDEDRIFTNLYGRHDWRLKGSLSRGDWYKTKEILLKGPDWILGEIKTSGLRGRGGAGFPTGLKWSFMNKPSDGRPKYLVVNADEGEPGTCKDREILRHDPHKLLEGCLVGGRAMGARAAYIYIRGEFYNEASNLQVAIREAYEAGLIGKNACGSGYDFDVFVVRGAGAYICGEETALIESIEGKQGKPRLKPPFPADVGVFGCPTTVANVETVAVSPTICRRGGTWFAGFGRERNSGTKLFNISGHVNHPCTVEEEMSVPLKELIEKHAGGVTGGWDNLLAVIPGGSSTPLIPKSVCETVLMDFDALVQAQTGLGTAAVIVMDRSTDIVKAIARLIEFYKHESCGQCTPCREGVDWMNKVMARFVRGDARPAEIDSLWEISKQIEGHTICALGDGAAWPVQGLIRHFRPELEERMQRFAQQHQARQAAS
UniProt P48643, whole entry, looked up: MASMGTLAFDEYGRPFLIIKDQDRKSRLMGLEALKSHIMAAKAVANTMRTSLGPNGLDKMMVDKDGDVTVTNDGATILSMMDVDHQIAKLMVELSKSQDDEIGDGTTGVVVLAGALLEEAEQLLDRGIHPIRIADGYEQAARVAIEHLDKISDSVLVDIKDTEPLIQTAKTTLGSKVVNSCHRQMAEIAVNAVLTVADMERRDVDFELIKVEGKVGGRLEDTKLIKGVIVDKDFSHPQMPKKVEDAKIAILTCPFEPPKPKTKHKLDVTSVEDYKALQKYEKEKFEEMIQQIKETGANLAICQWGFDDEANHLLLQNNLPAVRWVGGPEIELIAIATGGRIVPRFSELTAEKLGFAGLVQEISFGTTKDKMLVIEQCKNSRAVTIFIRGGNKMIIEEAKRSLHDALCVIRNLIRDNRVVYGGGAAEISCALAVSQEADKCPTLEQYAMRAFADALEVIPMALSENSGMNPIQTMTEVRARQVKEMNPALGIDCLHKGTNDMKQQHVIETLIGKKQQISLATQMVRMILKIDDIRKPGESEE
UniProt P50990: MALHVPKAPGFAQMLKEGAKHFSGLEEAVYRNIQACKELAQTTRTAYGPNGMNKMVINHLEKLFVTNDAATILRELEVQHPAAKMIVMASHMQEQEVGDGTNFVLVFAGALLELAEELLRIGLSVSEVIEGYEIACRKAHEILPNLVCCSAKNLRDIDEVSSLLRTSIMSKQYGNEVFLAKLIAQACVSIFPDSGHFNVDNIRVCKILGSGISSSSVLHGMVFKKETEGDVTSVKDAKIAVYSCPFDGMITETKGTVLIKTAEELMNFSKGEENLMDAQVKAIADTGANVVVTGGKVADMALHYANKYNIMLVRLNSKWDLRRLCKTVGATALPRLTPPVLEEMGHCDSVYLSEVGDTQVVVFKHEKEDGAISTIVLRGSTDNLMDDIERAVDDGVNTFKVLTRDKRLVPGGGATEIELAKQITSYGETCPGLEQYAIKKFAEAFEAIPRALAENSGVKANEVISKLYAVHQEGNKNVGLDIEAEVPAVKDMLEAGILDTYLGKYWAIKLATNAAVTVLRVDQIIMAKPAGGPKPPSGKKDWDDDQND
UniProt P49458: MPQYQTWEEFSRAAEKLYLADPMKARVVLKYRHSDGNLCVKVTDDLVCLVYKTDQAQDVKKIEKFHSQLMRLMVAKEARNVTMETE
UniProt P47897: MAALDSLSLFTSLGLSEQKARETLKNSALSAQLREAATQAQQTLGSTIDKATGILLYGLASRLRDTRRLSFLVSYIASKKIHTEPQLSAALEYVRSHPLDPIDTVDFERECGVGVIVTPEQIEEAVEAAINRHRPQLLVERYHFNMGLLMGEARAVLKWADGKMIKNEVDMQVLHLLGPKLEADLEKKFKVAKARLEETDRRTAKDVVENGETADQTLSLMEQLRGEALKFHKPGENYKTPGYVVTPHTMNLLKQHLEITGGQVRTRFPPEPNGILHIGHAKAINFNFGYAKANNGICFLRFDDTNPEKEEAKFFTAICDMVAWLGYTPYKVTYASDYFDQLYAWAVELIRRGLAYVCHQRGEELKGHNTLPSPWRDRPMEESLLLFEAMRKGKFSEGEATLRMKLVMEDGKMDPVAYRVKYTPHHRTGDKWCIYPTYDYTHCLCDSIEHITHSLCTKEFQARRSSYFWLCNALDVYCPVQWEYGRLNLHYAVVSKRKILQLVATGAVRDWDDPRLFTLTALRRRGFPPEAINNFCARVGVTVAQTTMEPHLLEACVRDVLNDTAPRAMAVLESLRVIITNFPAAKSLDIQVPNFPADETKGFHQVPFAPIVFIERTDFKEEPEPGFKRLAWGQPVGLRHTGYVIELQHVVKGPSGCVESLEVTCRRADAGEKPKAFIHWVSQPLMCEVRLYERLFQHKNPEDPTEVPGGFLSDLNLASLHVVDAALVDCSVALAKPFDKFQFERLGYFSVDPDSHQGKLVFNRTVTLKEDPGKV

Compound: COC(=O)/C=C/c1ccccc1 [methyl cinnamate]
Assay: log2 ratio of iodoacetamide-alkyne labeling of the cysteine site, DMSO over compound (competition); higher = stronger covalent engagement of the cysteine by the compound, active = 1 or more
Conditions: 500 µM; treatment time 1 h; system: HEK293T cell lysate
How it was run: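 HEK293T lysate (2 mg/mL) was treated with DMSO or electrophile (500 µM, 1 h, ambient temperature), then iodoacetamide alkyne (1 h), clicked to sCIP-TMT reagents, pooled, trypsin-digested overnight at 37 °C, streptavidin-enriched and acid-eluted. Peptides were run on Orbitrap Eclipse LC-MS/MS with FAIMS and quantified in FragPipe. The log2 competition ratio per cysteine is mean control-channel over mean compound-channel reporter intensity. Duplicate channels and three replicates were used, and cysteines quantified in only one replicate were excluded.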

log2 ratio of iodoacetamide-alkyne labeling, inactive:
ME1 C556 (UniProt P48163) 0.043
MSH2 C199 (UniProt P43246) 0.309
VDAC2 C227 (UniProt P45880) 0.0403
RANBP2 C348 (UniProt P49792) -0.00425
NDUFV1 C125 (UniProt P49821) 0.00583
CCT5 C429 (UniProt P48643) 0.14
DHPS C142 (UniProt P49366) 0.104
FASN C1548 (UniProt P49327) 0.226
CCT8 C187 (UniProt P50990) 0.0218
GPD2 C385 (UniProt P43304) 0.0364
SRP9 C39 (UniProt P49458) 0.225
CAPZA2 C111 (UniProt P47755) 0.138
TSC2 C414 (UniProt P49815) -0.0403
UniProt P49840_C408 0.3
QARS C657 (UniProt P47897) 0.138
